Measured values reported in paper PMC11003121.
These are yes or no findings as the source states them, for the method shown. Binding seen in cells or lysates may run through a third protein. Some entries that bind do so weakly or less than the wild type. Blank lines part the entries; values can stand above or below the molecule they belong to.

The chains behind the UniProt entries cited, without tags or fusion partners. Where a name states a change or a piece, a line headed by the entry shows the natural chain unless it says otherwise. Residues count along the entry.
UniProt Q9Z2L0: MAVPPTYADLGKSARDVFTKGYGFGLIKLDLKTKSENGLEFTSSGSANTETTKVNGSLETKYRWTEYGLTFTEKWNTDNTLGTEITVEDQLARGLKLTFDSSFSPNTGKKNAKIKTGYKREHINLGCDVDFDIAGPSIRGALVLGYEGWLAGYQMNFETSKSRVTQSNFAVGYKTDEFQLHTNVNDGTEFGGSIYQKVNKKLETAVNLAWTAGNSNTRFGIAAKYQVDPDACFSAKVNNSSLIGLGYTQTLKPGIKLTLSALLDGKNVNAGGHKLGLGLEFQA
UniProt P05370: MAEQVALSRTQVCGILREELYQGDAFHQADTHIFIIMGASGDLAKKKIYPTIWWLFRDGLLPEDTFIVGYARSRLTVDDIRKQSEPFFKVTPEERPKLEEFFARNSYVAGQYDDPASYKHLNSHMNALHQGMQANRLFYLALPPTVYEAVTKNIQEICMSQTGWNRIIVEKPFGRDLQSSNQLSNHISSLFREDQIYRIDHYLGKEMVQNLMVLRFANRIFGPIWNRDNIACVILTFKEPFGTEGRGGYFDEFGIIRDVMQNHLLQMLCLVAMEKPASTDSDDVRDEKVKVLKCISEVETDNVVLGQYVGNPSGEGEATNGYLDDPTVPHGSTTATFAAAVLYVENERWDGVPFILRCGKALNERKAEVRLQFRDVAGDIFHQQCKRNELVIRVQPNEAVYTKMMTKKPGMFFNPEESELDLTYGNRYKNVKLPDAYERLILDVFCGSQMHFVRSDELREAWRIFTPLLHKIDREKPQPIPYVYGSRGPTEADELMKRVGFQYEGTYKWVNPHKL
HA-G6PD-NTD (aa 1-210) expressed in VSMCs: residues 1-210 of P05370
UniProt P49950: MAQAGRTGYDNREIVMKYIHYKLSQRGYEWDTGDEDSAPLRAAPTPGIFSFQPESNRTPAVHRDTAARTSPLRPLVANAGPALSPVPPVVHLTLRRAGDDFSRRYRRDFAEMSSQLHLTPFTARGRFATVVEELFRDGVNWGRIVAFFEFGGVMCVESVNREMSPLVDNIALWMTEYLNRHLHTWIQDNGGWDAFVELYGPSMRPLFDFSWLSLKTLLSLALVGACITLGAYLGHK
UniProt Q63690: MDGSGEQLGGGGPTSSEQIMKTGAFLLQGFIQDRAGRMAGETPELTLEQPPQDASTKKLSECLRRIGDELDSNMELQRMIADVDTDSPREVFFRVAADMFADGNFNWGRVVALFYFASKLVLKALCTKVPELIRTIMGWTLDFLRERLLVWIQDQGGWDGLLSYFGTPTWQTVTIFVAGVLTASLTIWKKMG

What was measured:
[1] = target: Voltage-dependent anion-selective channel protein 1 (VDAC1), endogenous in rat VSMCs (rat (endogenous in primary VSMCs)) (UniProt Q9Z2L0); assay: co-IP; endogenous proteins in rat VSMC lysates (50 mM Tris-HCl pH 8.0, 150 mM NaCl, 0.1% SDS, 0.5% deoxycholate, 0.5% NP-40), specific antibodies and protein A/G-agarose, 4 °C; cells with or without PDGF-BB for 12 h, 6-AN, siG6PD or Ad-G6PD
GST-G6PD (rat) = GST-G6PD (rat) (UniProt P05370); assay: pull-down; recombinant GST-G6PD on glutathione-Sepharose 4B beads incubated with total lysate of HEK293A cells transfected with Flag-VDAC1, 4 °C overnight; blot with anti-G6PD and anti-VDAC1; only the target purified
[2] = target: HA-G6PD full length (pcDNA3.1-HA-G6PD) (rat) (UniProt P05370); assay: co-IP; HEK293A cells cotransfected with Flag-VDAC1 and HA-G6PD (FL, NTD or CTD); IP with anti-HA or anti-Flag, blot with anti-Flag or anti-HA
[3] = target: HA-G6PD-NTD (N-terminal domain, aa 1-210) (rat) (UniProt P05370); assay: as above
[4] = target: Glucose-6-phosphate dehydrogenase (G6PD), endogenous in rat VSMCs (rat (endogenous in primary VSMCs)) (UniProt P05370); assay: cross-linking; DSS 5 mM on suspended cells in 20 mM HEPES pH 8.0, 37 °C, 30 min, then Western blot; VSMCs with or without PDGF-BB for 12 h, siG6PD, 6AN, G6PD overexpression
[5] = target: HA-G6PD-NTD (aa 1-210) expressed in VSMCs (rat) (UniProt P05370); assay: co-IP; VSMCs transfected with HA-G6PD-FL, -NTD or -CTD; IP with anti-HA, blot with anti-VDAC1 (endogenous)
[6] = target: Glucose-6-phosphate dehydrogenase (G6PD), endogenous in rat VSMCs (rat (endogenous in primary VSMCs)) (UniProt P05370); assay: co-IP; endogenous proteins in rat VSMC lysates (50 mM Tris-HCl pH 8.0, 150 mM NaCl, 0.1% SDS, 0.5% deoxycholate, 0.5% NP-40), specific antibodies and protein A/G-agarose, 4 °C; cells with or without PDGF-BB for 12 h, 6-AN, siG6PD or Ad-G6PD
[7] = target: Glucose-6-phosphate dehydrogenase (G6PD), endogenous in rat VSMCs (rat (endogenous in primary VSMCs)) (UniProt P05370); assay: as above; remark: listed apart in the source

binding [1]: binds
Molecule: B-Cell Leukemia/Lymphoma 2 (Bcl-2), endogenous in rat VSMCs (from UniProt P49950 1-236)

binding [1]: binds
Molecule: Bcl-2-associated X protein (Bax), endogenous in rat VSMCs (from UniProt Q63690 1-192)

binding (GST-G6PD (rat)): binds | binding [2]: binds | binding [3]: binds
Molecule: Flag-VDAC1 (pcDNA3.1-Flag-VDAC1) (from UniProt Q9Z2L0 1-283)

binding [4]: binds | binding [1]: binds
Molecule: Glucose-6-phosphate dehydrogenase (G6PD), endogenous in rat VSMCs (from UniProt P05370 1-515) (enzyme)

binding [5]: binds | binding [6]: binds
Molecule: Voltage-dependent anion-selective channel protein 1 (VDAC1), endogenous in rat VSMCs (from UniProt Q9Z2L0 1-283)

binding [7]: binds
B1: VDAC2, endogenous in rat VSMCs (protein, UniProt P81155 1-295)
chain: MAECCVPVCQRPICIPPPYADLGKAARDIFNKGFGFGLVKLDVKTKSCSGVEFSTSGSSNTDTGKVSGTLETKYKWCEYGLTFTEKWNTDNTLGTEIAIEDQICQGLKLTFDTTFSPNTGKKSGKIKSAYKRECINLGCDVDFDFAGPAIHGSAVFGYEGWLAGYQMTFDSAKSKLTRSNFAVGYRTGDFQLHTNVNNGTEFGGSIYQKVCEDFDTSVNLAWTSGTNCTRFGIAAKYQLDPTASISAKVNNSSLIGVGYTQTLRPGVKLTLSALVDGKSFNAGGHKLGLALELEA

binding [7]: binds
B2: VDAC3, endogenous in rat VSMCs (protein, UniProt Q9R1Z0 1-283)
chain: MCSTPTYCDLGKAAKDVFNKGYGFGMVKIDLKTKSCSGVEFSTSGHAYTDTGKASGNLETKYKVCNYGLIFTQKWNTDNTLGTEISWENKLAEGLKLTVDTIFVPNTGKKSGKLKASYRRDCFSVGSKVDIDFSGPTIYGWAVLAFEGWLAGYQMSFDTAKSKLCQNNFALGYKAEDFQLHTHVNDGTEFGGSIYQRVNEKIETSINLAWTAGSNNTRFGIAAKYRLDCRTSLSAKVNNASLIGLGYTQSLRPGVKLTLSALVDGKNFNAGGHKVGLGFELEA
